The text below walks through data of US20100240865 (published 2010).

A short description of the data set: general procedure: Fmoc solid-phase peptide synthesis; Thr(t-Bu)-ol-2-Cl-Trt resin; 2-Cl-Trt resin; Rink amide resin; TBTU/HOBt with diisopropylethylamine or collidine. To be noted: whole synthesis, RP-HPLC, 5μ C18 column, 0.05% TFA in acetonitrile/water, 1 ml/min, scale of the general procedure 100 g resin (0.7 mmol/g), 50 g resin, 30 g resin.

Square brackets hold non-standard residues; d marks the D form. * marks the point of attachment. hArg = N=C(N)NCCCC[C@H](N)C(=O)O; Acm = CC(=O)NC*; Mpa = O=C(O)CCS Bounds are passed on as bounds.

Regarding D-Phe-Cys-Phe-D-Trp-Lys-Thr-Cys-Thr-ol, the “final HPLC purity” value (trifluoroacetate, exchanged to acetate for desmopressin and calcitonin, one disulfide bridge, sequence written open) is >98.5%.
With “Mpa-Tyr-Phe-Gln-Asn-Cys(Acm)-Pro-D-Arg-Gly-NH2”, the “final HPLC purity” value (acetate) is given as >99.0%.
[Mpa][hArg]GDWPC(Acm)-NH2: the “final HPLC purity” value (trifluoroacetate, exchanged to acetate for desmopressin and calcitonin) was >98.5%.
